# Laboratory results: the supplement of paper PMC6411743
# Amino acid sequences for entries named in this document (tags omitted). A change or cut given only in a name is not applied to a line headed by its entry.
# UniProt O75569: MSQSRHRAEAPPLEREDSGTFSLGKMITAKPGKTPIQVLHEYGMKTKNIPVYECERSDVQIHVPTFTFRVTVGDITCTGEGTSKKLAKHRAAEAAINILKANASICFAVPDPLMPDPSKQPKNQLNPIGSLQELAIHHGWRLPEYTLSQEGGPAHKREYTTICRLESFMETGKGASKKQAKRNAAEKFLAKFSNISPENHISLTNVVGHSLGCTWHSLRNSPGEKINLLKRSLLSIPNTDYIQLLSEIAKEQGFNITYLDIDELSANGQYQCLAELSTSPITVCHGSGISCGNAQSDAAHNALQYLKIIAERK
# UniProt O95628: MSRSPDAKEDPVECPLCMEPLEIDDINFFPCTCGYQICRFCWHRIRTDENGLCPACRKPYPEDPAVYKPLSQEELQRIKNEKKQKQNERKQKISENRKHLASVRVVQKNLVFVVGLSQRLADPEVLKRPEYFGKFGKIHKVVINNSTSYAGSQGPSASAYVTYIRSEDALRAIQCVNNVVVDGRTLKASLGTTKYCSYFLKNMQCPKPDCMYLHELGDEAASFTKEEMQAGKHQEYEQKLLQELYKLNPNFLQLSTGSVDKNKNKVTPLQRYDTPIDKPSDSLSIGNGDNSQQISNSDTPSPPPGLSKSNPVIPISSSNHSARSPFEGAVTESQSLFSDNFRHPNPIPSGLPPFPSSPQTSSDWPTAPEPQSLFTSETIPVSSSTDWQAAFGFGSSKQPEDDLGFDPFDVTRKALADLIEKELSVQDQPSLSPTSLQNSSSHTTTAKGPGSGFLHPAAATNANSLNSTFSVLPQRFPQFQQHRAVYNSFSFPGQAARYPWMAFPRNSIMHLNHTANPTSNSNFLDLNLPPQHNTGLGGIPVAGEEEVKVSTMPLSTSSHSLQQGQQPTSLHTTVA
# UniProt O60870: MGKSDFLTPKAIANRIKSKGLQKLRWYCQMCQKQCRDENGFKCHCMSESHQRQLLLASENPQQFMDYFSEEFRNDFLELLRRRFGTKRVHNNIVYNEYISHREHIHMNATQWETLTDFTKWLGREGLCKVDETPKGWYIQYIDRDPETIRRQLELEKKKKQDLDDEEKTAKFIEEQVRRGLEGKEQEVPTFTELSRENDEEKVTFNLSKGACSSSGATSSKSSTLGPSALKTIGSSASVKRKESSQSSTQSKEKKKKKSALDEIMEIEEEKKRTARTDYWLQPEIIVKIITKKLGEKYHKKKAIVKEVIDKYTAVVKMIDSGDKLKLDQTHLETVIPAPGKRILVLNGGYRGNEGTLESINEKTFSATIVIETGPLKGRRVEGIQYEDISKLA
# UniProt O94762: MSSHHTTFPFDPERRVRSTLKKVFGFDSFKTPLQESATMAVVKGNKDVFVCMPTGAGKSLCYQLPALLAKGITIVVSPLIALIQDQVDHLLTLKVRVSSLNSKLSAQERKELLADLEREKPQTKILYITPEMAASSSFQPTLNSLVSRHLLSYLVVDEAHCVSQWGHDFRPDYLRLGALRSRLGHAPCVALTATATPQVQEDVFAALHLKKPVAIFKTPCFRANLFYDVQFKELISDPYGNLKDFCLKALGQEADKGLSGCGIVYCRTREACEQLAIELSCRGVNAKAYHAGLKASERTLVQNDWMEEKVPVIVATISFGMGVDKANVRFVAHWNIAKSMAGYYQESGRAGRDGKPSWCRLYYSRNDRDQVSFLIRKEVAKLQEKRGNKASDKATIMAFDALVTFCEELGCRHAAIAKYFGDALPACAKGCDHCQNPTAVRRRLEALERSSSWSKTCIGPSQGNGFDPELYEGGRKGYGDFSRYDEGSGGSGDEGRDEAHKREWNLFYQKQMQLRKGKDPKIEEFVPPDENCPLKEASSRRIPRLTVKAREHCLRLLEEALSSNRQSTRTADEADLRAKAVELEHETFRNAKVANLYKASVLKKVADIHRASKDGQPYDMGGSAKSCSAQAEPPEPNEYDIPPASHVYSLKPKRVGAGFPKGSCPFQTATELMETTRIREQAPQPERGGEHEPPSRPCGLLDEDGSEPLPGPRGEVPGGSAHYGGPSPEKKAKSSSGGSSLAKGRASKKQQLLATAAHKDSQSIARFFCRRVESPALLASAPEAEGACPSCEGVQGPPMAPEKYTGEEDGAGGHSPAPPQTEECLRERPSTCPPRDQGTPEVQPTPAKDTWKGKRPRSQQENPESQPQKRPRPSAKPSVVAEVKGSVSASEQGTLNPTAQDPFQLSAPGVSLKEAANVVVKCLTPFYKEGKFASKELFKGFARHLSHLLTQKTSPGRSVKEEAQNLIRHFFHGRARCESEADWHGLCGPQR
# UniProt O94901, whole entry: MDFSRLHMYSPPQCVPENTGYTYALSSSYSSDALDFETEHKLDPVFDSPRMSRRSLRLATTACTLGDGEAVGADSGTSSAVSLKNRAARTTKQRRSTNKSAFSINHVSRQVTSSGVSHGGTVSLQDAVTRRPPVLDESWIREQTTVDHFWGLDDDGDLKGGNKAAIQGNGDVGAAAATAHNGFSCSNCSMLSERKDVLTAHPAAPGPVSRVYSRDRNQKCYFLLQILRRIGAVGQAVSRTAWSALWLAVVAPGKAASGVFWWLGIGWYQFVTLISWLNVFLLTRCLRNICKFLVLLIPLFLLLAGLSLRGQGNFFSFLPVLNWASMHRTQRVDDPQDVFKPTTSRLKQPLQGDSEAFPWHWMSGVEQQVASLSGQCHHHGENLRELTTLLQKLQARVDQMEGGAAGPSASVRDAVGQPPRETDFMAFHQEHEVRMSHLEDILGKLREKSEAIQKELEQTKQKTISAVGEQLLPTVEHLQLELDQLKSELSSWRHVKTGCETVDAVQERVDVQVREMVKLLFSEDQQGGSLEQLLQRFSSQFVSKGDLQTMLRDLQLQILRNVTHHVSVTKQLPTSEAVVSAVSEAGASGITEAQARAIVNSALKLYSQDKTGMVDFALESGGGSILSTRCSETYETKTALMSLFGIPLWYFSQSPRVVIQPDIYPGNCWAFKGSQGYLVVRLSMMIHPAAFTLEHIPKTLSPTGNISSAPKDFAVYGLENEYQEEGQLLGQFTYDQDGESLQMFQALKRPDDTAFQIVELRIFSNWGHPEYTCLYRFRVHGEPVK
# UniProt O95394: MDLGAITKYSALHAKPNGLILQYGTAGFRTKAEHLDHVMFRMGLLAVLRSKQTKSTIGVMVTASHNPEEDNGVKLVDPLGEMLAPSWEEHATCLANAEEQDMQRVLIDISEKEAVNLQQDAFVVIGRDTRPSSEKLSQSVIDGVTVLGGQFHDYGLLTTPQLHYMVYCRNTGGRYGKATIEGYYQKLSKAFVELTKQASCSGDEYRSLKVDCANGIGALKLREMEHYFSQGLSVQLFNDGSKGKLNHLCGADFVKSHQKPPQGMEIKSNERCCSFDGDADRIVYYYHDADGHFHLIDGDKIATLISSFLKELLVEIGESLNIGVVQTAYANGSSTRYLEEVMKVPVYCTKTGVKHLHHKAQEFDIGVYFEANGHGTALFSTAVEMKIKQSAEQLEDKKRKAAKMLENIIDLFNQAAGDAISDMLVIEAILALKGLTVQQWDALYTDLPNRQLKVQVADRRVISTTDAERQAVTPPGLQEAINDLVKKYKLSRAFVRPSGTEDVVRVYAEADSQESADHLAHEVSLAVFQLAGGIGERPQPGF
# UniProt O75792: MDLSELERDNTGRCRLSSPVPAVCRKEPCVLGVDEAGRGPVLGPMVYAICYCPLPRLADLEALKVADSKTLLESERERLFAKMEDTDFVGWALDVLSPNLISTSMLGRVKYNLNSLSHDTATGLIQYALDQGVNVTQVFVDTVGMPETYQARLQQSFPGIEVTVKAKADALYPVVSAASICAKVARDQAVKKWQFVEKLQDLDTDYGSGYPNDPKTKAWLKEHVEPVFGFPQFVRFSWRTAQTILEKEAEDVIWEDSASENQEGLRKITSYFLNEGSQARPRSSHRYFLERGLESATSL
# UniProt O94900: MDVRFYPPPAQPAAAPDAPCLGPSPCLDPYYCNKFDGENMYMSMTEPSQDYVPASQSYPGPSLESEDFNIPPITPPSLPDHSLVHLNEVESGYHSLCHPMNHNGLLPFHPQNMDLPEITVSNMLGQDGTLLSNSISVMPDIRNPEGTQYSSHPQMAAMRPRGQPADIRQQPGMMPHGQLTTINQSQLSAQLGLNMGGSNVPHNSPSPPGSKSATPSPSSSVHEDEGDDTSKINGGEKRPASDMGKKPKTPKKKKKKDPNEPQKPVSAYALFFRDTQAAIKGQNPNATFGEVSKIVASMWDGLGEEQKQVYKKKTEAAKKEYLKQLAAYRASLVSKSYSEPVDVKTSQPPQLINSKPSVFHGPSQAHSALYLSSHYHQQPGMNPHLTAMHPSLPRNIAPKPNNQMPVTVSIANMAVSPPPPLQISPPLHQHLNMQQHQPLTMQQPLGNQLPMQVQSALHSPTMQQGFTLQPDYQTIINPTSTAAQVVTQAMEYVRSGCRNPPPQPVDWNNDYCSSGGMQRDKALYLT
# UniProt O75781: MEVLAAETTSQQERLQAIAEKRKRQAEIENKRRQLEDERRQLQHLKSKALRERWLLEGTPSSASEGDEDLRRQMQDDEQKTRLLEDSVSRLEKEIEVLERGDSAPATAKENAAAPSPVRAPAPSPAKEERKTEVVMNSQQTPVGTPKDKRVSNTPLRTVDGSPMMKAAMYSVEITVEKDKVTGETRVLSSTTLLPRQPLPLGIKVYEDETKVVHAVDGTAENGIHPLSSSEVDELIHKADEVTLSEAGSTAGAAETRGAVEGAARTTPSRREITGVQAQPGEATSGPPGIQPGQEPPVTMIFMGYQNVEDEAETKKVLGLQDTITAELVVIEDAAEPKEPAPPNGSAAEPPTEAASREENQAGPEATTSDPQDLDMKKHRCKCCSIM
# UniProt O94829: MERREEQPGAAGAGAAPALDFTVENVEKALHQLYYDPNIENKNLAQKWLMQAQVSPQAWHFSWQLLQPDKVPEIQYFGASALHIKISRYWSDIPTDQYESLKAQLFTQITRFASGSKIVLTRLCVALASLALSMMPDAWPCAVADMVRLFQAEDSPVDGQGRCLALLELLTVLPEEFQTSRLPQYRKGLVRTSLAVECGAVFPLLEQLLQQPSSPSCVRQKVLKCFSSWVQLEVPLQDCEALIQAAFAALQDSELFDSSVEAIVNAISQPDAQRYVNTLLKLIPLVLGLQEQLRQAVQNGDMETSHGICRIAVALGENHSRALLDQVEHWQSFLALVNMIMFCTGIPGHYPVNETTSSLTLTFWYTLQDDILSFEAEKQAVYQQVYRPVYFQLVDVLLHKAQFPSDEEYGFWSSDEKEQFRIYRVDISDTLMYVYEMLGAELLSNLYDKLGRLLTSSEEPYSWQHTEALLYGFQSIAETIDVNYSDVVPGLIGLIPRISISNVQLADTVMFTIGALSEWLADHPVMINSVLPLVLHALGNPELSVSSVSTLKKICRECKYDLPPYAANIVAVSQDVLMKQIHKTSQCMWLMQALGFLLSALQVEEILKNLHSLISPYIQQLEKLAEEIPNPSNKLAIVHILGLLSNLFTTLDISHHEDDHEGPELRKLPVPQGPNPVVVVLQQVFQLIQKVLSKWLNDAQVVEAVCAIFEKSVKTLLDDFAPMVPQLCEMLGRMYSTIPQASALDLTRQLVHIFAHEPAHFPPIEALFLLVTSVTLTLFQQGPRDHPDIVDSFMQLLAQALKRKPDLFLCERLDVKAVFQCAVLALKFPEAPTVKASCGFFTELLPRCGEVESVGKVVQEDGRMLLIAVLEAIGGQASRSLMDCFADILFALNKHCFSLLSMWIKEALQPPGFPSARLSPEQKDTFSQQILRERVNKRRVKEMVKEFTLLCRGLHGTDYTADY
# UniProt O75382: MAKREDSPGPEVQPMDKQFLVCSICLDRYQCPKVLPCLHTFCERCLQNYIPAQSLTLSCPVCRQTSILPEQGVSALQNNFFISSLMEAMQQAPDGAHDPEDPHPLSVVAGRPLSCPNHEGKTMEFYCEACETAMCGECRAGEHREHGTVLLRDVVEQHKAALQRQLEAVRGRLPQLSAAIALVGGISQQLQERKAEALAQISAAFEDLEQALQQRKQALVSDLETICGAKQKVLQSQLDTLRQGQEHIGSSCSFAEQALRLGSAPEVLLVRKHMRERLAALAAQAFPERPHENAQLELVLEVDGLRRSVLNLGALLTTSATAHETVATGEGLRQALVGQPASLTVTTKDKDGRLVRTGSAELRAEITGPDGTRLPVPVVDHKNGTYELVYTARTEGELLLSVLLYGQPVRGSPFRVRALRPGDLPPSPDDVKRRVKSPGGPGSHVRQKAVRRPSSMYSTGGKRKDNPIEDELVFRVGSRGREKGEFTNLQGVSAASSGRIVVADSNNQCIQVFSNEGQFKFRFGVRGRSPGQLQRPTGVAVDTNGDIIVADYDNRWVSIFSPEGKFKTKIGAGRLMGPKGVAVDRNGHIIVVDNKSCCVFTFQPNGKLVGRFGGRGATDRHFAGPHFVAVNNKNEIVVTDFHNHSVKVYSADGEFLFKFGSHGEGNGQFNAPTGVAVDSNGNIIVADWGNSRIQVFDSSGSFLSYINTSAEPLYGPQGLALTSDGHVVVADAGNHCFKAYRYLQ
# ± gives the standard deviation of the averaged measurements. This is a selection; strong and weak results do not stand in their true shares.
# Compound: Nc1ncnc2c1ncn2[C@@H]1O[C@H](COP(=O)(O)OP(=O)(O)OP(=O)(O)O)[C@@H](O)[C@H]1O [adenosine triphosphate]
# Assay: NP40-soluble protein abundance relative to vehicle (solubility fold change) (ratio); higher = more soluble protein in presence of ATP
# In short: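 Values are fold changes against the detergent-processed vehicle, based on vsn-normalised intensities. Jurkat crude lysate was treated at eight concentrations from 0.1 to 10 mM (10 min at room temperature, then 3 min at 37 °C), solubilised with 0.8% NP40 and benzonase, ultracentrifuged and analysed by TMT-labelled LC-MS/MS over three independent experiments.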
Target,NP40-soluble protein abundance (concentration: 1mM),NP40-soluble protein abundance (concentration: 2mM),NP40-soluble protein abundance (concentration: 4mM),NP40-soluble protein abundance (concentration: 6mM),NP40-soluble protein abundance (concentration: 8mM),NP40-soluble protein abundance (concentration: 10mM)
PRKRA (UniProt O75569),0.951 ± 0.066,0.952 ± 0.073,1.01 ± 0.043,1.08 ± 0.072,1.09 ± 0.063,1.16 ± 0.12
UniProt O75822 and related entries,0.745 ± 0.1,0.708 ± 0.1,0.705 ± 0.086,0.868 ± 0.12,0.907 ± 0.053,0.992 ± 0.047
UniProt O60879-2|O60879-3|C9J6U3 and related entries,1.01 ± 0.012,1.01 ± 0.023,1.006 ± 0.0081,1.013 ± 0.0068,1 ± 0.012,0.9974 ± 0.0084
UniProt O75398 and related entries,0.936 ± 0.15,1 ± 0.1,0.987 ± 0.13,1.06 ± 0.098,0.942 ± 0.083,1 ± 0.08
LYPLA2 (UniProt O95372),0.943 ± 0.022,0.968 ± 0.036,0.952 ± 0.014,0.928 ± 0.029,0.942 ± 0.059,0.898 ± 0.056
CPD (UniProt O75976),0.983 ± 0.021,0.985 ± 0.03,0.962 ± 0.034,0.972 ± 0.031,0.935 ± 0.031,0.955 ± 0.026
MAN1A2 (UniProt O60476),0.989 ± 0.067,0.992 ± 0.018,1.01 ± 0.031,0.984 ± 0.046,0.982 ± 0.017,0.987 ± 0.086
UniProt O95628 and related entries,0.952 ± 0.052,0.979 ± 0.014,0.972 ± 0.032,0.939 ± 0.055,0.923 ± 0.017,0.961 ± 0.019
UniProt O95155 and related entries,1.01 ± 0.053,1.01 ± 0.045,0.991 ± 0.053,0.958 ± 0.066,0.984 ± 0.037,0.987 ± 0.022
KIN (UniProt O60870),1.03 ± 0.053,1.03 ± 0.071,0.989 ± 0.073,1.01 ± 0.065,0.992 ± 0.054,1 ± 0.08
FRYL (UniProt O94915),1.1 ± 0.069,1.05 ± 0.036,1.07 ± 0.065,1.05 ± 0.12,1.12 ± 0.087,1.1 ± 0.11
UniProt O94763 and related entries,0.96 ± 0.029,0.956 ± 0.018,0.9385 ± 0.0087,1.01 ± 0.11,0.968 ± 0.025,0.955 ± 0.019
UniProt O94762 and related entries,1.01 ± 0.047,1.01 ± 0.052,1.02 ± 0.043,1.02 ± 0.036,1.03 ± 0.034,1.04 ± 0.038
UniProt O94901-9|E9PHI4 and related entries,1.06 ± 0.082,1.08 ± 0.13,1.09 ± 0.16,1.04 ± 0.12,1.11 ± 0.17,1.09 ± 0.15
UniProt O95696 and related entries,1.14 ± 0.12,1.15 ± 0.13,1.27 ± 0.11,1.29 ± 0.096,1.38 ± 0.068,1.49 ± 0.042
UniProt O95394 and related entries,1.03 ± 0.047,1.03 ± 0.066,1 ± 0.053,0.978 ± 0.092,1.02 ± 0.057,0.996 ± 0.048
YEATS4 (UniProt O95619),0.9808 ± 0.0096,0.968 ± 0.011,0.946 ± 0.061,1.05 ± 0.11,1.01 ± 0.048,1 ± 0.038
RNASEH2A (UniProt O75792),0.973 ± 0.014,0.972 ± 0.037,0.932 ± 0.033,0.99 ± 0.044,0.951 ± 0.033,0.922 ± 0.049
UniProt O95429 and related entries,1.04 ± 0.25,0.997 ± 0.19,1.07 ± 0.28,1.05 ± 0.26,1 ± 0.26,0.944 ± 0.2
TOX (UniProt O94900),0.884 ± 0.082,0.913 ± 0.034,0.883 ± 0.052,0.945 ± 0.082,0.824 ± 0.071,0.815 ± 0.078
RBBP9 (UniProt O75884),0.984 ± 0.029,1.04 ± 0.0084,0.989 ± 0.073,1.01 ± 0.047,0.983 ± 0.036,1 ± 0.028
UniProt O75554 and related entries,1.05 ± 0.042,1.073 ± 0.0093,1.07 ± 0.068,1.18 ± 0.024,1.08 ± 0.034,1.142 ± 0.0023
PALM (UniProt O75781),0.919 ± 0.071,0.938 ± 0.049,0.955 ± 0.039,0.939 ± 0.02,0.888 ± 0.032,0.892 ± 0.082
CCNK (UniProt O75909),1.14 ± 0.077,1.19 ± 0.018,1.18 ± 0.068,1.14 ± 0.14,1.15 ± 0.04,1.16 ± 0.024
UniProt O95466-2,0.955 ± 0.062,0.946 ± 0.062,0.922 ± 0.071,0.953 ± 0.051,0.914 ± 0.045,0.936 ± 0.035
UniProt O75150 and related entries,0.958 ± 0.026,0.95 ± 0.018,0.9503 ± 0.0064,0.983 ± 0.013,0.96 ± 0.018,0.972 ± 0.022
ZFAND5 (UniProt O76080),0.856 ± 0.05,0.874 ± 0.064,0.876 ± 0.054,0.933 ± 0.044,0.822 ± 0.036,0.846 ± 0.084
MAFK (UniProt O60675),1.03 ± 0.16,0.986 ± 0.11,1.01 ± 0.08,0.983 ± 0.1,1.01 ± 0.062,0.987 ± 0.094
IPO13 (UniProt O94829),1.05 ± 0.18,0.99 ± 0.094,1.01 ± 0.17,1.03 ± 0.19,0.957 ± 0.12,1.03 ± 0.18
UniProt O75382 and related entries,1.11 ± 0.066,1.09 ± 0.037,1.12 ± 0.075,1.18 ± 0.059,1.18 ± 0.049,1.21 ± 0.11

# Some values from the results shown.
# Entry for FRYL (UniProt O94915) under NP40-soluble protein abundance (concentration: 2mM): 1.05 ± 0.036
# Entry for MAFK (UniProt O60675) under NP40-soluble protein abundance (concentration: 8mM): 1.01 ± 0.062
